Measurements reported in US10590153B2, “Process for producing crystalline DTPMP” (Zschimmer & Schwarz Mohsdorf GmbH & Co. KG, priority 2014, dated 2020).
Further values from the same series stand in other lists.

Assay: Drying behaviour of crystallisates in dependence on residual moisture and product purity (tempering in sealed vials, visual points classification)
Format: physicochemical
Set-up: key: 5 points=sample unchanged; 4 points=sample compacted/started to dissolve; 3 points=sample visibly started to dissolve; 2 points=sample cloudy highly viscous solution; 1 point=sample dissolved to clear solution
Details: sealed vial, shaken
Method: This dependency is shown by the following example for determining the drying behaviour of crystallisates in dependence on residual moisture and product purity.
A DTPMP solid isolated by recrystallisation is characterised by residues of adhering mother liquor via the quality parameters listed in the following table. Determination of the residual moisture content by means of a halogen dryer HB 43 S/Mettler Toledo is carried out isothermally at the indicated temperature using the shutoff criterion 4 (AK4=mean weight loss is <1 mg per 90 seconds):
After a purification step, which consists in suspending the solid in water and then separating it off by means of a filtering centrifuge, the following quality criteria are obtained:
The adhering residual moisture is removed stepwise from these solid samples in a rotary evaporator at 40° C. and 5 mbar vacuum, so that a series of samples with decreasing residual moisture content is prepared from each of the two purity grades (unwashed and washed).
4 ml borosilicate vials are filled with this sample material and the filling level is adjusted to ⅔ of the height of the glass by gentle tapping. In order to minimise evaporative losses, the screw cap of each vial is additionally sealed with a polyethylene film. All the samples are shaken in parallel in a tempering block on a heating and cooling shaker ThermoTwister comfort/Quantifoil Instruments GmbH for a defined period at a defined temperature and then assessed visually. Classification is made according to the following points system: […]

[1] = Temperature 35 °C, test duration 24 h
[2] = Temperature 40 °C, test duration 24 h
[3] = Temperature 45 °C, test duration 24 h
[4] = Temperature 50 °C, test duration 24 h
[5] = Temperature 55 °C, test duration 24 h
[6] = Temperature 60 °C, test duration 24 h
[7] = Temperature 65 °C, test duration 5 h
[8] = Temperature 70 °C, test duration 5 h
[9] = Temperature 75 °C, test duration 5 h
[10] = Temperature 80 °C, test duration 5 h
[11] = Temperature 85 °C, test duration 5 h
[12] = Temperature 90 °C, test duration 5 h

| SMILES | Visual classification at the end of the tempering step (points system) [1] | Visual classification at the end of the tempering step (points system) [2] | Visual classification at the end of the tempering step (points system) [3] | Visual classification at the end of the tempering step (points system) [4] | Visual classification at the end of the tempering step (points system) [5] | Visual classification at the end of the tempering step (points system) [6] | Visual classification at the end of the tempering step (points system) [7] | Visual classification at the end of the tempering step (points system) [8] | Visual classification at the end of the tempering step (points system) [9] | Visual classification at the end of the tempering step (points system) [10] | Visual classification at the end of the tempering step (points system) [11] | Visual classification at the end of the tempering step (points system) [12] |
| --- | --- | --- | --- | --- | --- | --- | --- | --- | --- | --- | --- | --- |
| O=P(O)(O)CN(CCN(CP(=O)(O)O)CP(=O)(O)O)CCN(CP(=O)(O)O)CP(=O)(O)O [washed quality 14 [% by mass] residual moisture] | 5 | 5 | 5 | 5 | 5 | 5 | 5 | 5 | 5 | 5 | 5 | 5 |
| O=P(O)(O)CN(CCN(CP(=O)(O)O)CP(=O)(O)O)CCN(CP(=O)(O)O)CP(=O)(O)O [washed quality 26 [% by mass] residual moisture] | 5 | 5 | 5 | 5 | 4 | 5 | 4 | 3 | 3 | 2 | 2 | 2 |
| O=P(O)(O)CN(CCN(CP(=O)(O)O)CP(=O)(O)O)CCN(CP(=O)(O)O)CP(=O)(O)O [washed quality 32 [% by mass] residual moisture] | 5 | 5 | 5 | 5 | 5 | 5 | 4 | 3 | 3 | 2 | 2 | 2 |
| O=P(O)(O)CN(CCN(CP(=O)(O)O)CP(=O)(O)O)CCN(CP(=O)(O)O)CP(=O)(O)O [washed quality 36 [% by mass] residual moisture] | 5 | 5 | 5 | 5 | 5 | 5 | 3 | 1 | 1 | 1 | 1 | 1 |

Next, values leading:

| Visual classification at the end of the tempering step (points system) [1] | Visual classification at the end of the tempering step (points system) [2] | Visual classification at the end of the tempering step (points system) [3] | Visual classification at the end of the tempering step (points system) [4] | Visual classification at the end of the tempering step (points system) [5] | Visual classification at the end of the tempering step (points system) [6] | Visual classification at the end of the tempering step (points system) [7] | Visual classification at the end of the tempering step (points system) [8] | Visual classification at the end of the tempering step (points system) [9] | Visual classification at the end of the tempering step (points system) [10] | Visual classification at the end of the tempering step (points system) [11] | Visual classification at the end of the tempering step (points system) [12] | SMILES |
| --- | --- | --- | --- | --- | --- | --- | --- | --- | --- | --- | --- | --- |
| 5 | 5 | 5 | 5 | 5 | 5 | 3 | 1 | 1 | 1 | 1 | 1 | O=P(O)(O)CN(CCN(CP(=O)(O)O)CP(=O)(O)O)CCN(CP(=O)(O)O)CP(=O)(O)O [washed quality 47 [% by mass] residual moisture] |
| – | 5 | 5 | 5 | 5 | 3 | 1 | 1 | 1 | – | – | – | O=P(O)(O)CN(CCN(CP(=O)(O)O)CP(=O)(O)O)CCN(CP(=O)(O)O)CP(=O)(O)O [washed quality 53 [% by mass] residual moisture] |
